Laboratory results published in paper doi:10.1101/630897.
No constants are given. Whether binding was seen depends on the method and setting. Binding seen in cells or lysates may run through a third protein. These calls come from enrichment with a bait or labelling near it, and not all partners need be listed. Sequences can lack the tags named with a protein.

T1: CLOCK-HA (UniProt O08785)
T1 sequence: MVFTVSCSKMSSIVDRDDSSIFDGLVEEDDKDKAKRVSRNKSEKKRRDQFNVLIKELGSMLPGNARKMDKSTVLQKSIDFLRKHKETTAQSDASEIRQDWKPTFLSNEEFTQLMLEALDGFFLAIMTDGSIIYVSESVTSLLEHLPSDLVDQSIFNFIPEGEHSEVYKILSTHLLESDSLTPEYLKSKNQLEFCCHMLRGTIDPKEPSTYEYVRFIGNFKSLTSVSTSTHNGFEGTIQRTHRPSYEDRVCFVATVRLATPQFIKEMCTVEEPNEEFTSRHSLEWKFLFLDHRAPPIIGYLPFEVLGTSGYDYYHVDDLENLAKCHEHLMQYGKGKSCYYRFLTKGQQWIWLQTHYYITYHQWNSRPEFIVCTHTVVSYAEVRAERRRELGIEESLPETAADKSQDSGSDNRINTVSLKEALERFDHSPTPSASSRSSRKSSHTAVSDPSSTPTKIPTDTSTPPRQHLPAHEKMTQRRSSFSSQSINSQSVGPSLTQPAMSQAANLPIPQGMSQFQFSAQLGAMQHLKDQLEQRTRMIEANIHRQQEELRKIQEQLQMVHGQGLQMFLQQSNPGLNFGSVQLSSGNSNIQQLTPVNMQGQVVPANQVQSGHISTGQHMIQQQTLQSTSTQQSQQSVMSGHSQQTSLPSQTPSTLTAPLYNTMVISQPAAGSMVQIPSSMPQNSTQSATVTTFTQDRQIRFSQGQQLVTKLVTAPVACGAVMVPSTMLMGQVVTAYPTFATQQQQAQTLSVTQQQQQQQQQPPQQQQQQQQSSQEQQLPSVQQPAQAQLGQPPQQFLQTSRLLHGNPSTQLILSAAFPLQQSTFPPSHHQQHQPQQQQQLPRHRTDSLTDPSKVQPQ


Target: T1, CLOCK-HA
Assay: affinity purification with mass spectrometry

Molecule	binding
BMAL1 (endogenous, mouse liver) (from UniProt Q9WTL8 1-632)	binds
CNOT1 (endogenous, mouse liver) (from UniProt Q6ZQ08 1-2375)	binds
CNOT2 (from UniProt Q8C5L3 1-540)	binds
OGT (O-GlcNAc Transferase) (enzyme, UniProt Q8CGY8 1-1046) MASSVGNVADSTEPTKRMLSFQGLAELAHREYQAGDFEAAERHCMQLWRQEPDNTGVLLLLSSIHFQCRRLDRSAHFSTLAIKQNPLLAEAYSNLGNVYKERGQLQEAIEHYRHALRLKPDFIDGYINLAAALVAAGDMEGAVQAYVSALQYNPDLYCVRSDLGNLLKALGRLEEAKACYLKAIETQPNFAVAWSNLGCVFNAQGEIWLAIHHFEKAVTLDPNFLDAYINLGNVLKEARIFDRAVAAYLRALSLSPNHAVVHGNLACVYYEQGLIDLAIDTYRRAIELQPHFPDAYCNLANALKEKGSVAEAEDCYNTALRLCPTHADSLNNLANIKREQGNIEEAVRLYRKALEVFPEFAAAHSNLASVLQQQGKLQEALMHYKEAIRISPTFADAYSNMGNTLKEMQDVQGALQCYTRAIQINPAFADAHSNLASIHKDSGNIPEAIASYRTALKLKPDFPDAYCNLAHCLQIVCDWTDYDERMKKLVSIVAEQLEKNRLPSVHPHHSMLYPLSHGFRKAIAERHGNLCLDKINVLHKPPYEHPKDLKLSDGRLRVGYVSSDFGNHPTSHLMQSIPGMHNPDKFEVFCYALSPDDGTNFRVKVMAEANHFIDLSQIPCNGKAADRIHQDGIHILVNMNGYTKGARNELFALRPAPIQAMWLGYPGTSGALFMDYIITDQETSPAEVAEQYSEKLAYMPHTFFIGDHANMFPHLKKKAVIDFKSNGHIYDNRIVLNGIDLKAFLDSLPDVKIVKMKCPDGGDNPDSSNTALNMPVIPMNTIAEAVIEMINRGQIQITINGFSISNGLATTQINNKAATGEEVPRTIIVTTRSQYGLPEDAIVYCNFNQLYKIDPSTLQMWANILKRVPNSVLWLLRFPAVGEPNIQQYAQNMGLPQNRIIFSPVAPKEEHVRRGQLADVCLDTPLCNGHTTGMDVLWAGTPMVTMPGETLASRVAASQLTCLGCLELIAKSRQEYEDIAVKLGTDLEYLKKIRGKVWKQRISSPLFNTKQYTMELERLYLQMWEHYAAGNKPDHMIKPVEVTESA	binds
ZBTB20 (protein, UniProt Q8K0L9 1-741) MLERKKPKTAENQKASEENEITQPGGSSAKPALPCLNFEAVLSPAPALIHSTHSLTNSHAHTGSSDCDISCKGMTERIHSINLHNFSNSVLETLNEQRNRGHFCDVTVRIHGSMLRAHRCVLAAGSPFFQDKLLLGYSDIEIPSVVSVQSVQKLIDFMYSGVLRVSQSEALQILTAASILQIKTVIDECTRIVSQNVGDVFPGIQDSGQDTPRGTPESGTSGQSSDTESGYLQSHPQHSVDRIYSALYACSMQNGSGERSFYSGAVVSHHETALGLPRDHHMEDPSWITRIHERSQQMERYLSTTPETTHCRKQPRPVRIQTLVGNIHIKQEMEDDYDYYGQQRVQILERNESEECTEDTDQAEGTESEPKGESFDSGVSSSIGTEPDSVEQQFGAAAPRDGQAEPAQPEQAAEAPAESSAQPNQLEPGASSPERSNESEMDNTVITVSNSSDKGVLQQPSVNTSIGQPLPSTQLYLRQTETLTSNLRMPLTLTSNTQVIGTAGNTYLPALFTTQPAGSGPKPFLFSLPQPLTGQQTQFVTVSQPGLSTFTAQLPAPQPLASSAGHSTASGQGDKKPYECTLCNKTFTAKQNYVKHMFVHTGEKPHQCSICWRSFSLKDYLIKHMVTHTGVRAYQCSICNKRFTQKSSLNVHMRLHRGEKSYECYICKKKFSHKTLLERHVALHSASNGTPPAGTPPGARAGPPGVVACTEGTTYVCSVCPAKFDQIEQFNDHMRMHVSDG	binds
